Assay results reported in patent US11975048B2 (NOVEL PHARMA INC., priority 2019, dated 2024).
For part of these data: Some peptides are written in HELM: one residue between dots, names in brackets for other building blocks, links after the first $.

Tests used:
[1] = peptide made by a vendor (peptide synthesis; Fmoc-Pro-trityl resin; DIC/HOBt); details: whole synthesis, 230 nm, sodium salt or acetate
[2] = peptide made by a vendor; details: whole synthesis, sodium salt or acetate

Substance | final HPLC purity [1] [%] | final HPLC purity ([1]; run 1) [%] | final HPLC purity [2] [%]
Arachidic acid-Gln-His-Trp-Ser-Tyr-D-Leu-Leu-Arg-Pro-NHEt (QHWSYLLRP; N-terminal arachidic acid; D-residues; C-terminal NHEt; GnRH analogue; SITE (1)..(1) Gln in position 1 was modified with Arachidic acid.; PEPTIDE (1)..(9) The petide was salificated with acetate salt.; SITE (6)..(6) Leu in position 6 is D-Leu.; SITE (9)..(9) C-terminus of the peptide was modified as NHEt(des-Gly).) | 98.8 |  | 
PEPTIDE1{[Pal16].Q.H.W.S.Y.[dL].L.R.P.[NHEt]}$$$$V2.0 [P2] |  | 98.2 | 
Lauric acid-Gln-His-Trp-Ser-Tyr-D-Leu-Leu-Arg-Pro-NHEt (QHWSYLLRP; N-terminal lauric acid; D-residues; C-terminal ethylamide; GnRH analogue; SITE (1)..(1) Gln in position 1 was modified with Lauric acid.; PEPTIDE (1)..(9) The petide was salificated with acetate salt.; SITE (6)..(6) Leu in position 6 is D-Leu.; SITE (9)..(9) C-terminus of the peptide was modified as NHEt(des-Gly).) |  |  | 99.0
PEPTIDE1{[Pal16].Q.H.W.S.Y.[dL].L.R.P.[NHEt]}$$$$V2.0 [P4] |  | 98.3 | 
Lauric acid-Glu-His-Trp-Ser-Tyr-D-Leu-Leu-Arg-Pro-NHEt (EHWSYLLRP; N-terminal lauric acid; D-residues; C-terminal NHEt; GnRH analogue; SITE (1)..(1) Glu in position 1 was modified with Lauric acid.; PEPTIDE (1)..(9) The petide was salificated with acetate salt.; SITE (6)..(6) Leu in position 6 is D-Leu.; SITE (9)..(9) C-terminus of the peptide was modified as NHEt(des-Gly).) |  |  | 98.4
Arachidic acid-Glu-His-Trp-Ser-Tyr-D-Leu-Leu-Arg-Pro-NHEt (EHWSYLLRP; N-terminal arachidic acid; D-residues; C-terminal NHEt; GnRH analogue; SITE (1)..(1) Glu in position 1 was modified with Arachidic acid.; PEPTIDE (1)..(9) The petide was salificated with acetate salt.; SITE (6)..(6) Leu in position 6 is D-Leu.; SITE (9)..(9) C-terminus of the peptide was modified as NHEt(des-Gly).) | 98.9 |  | 
